Measured data: PubChem BioAssay AID1259308 (NCATS, 2017)
Here is an unselected part of about 59,000 reagents tested. Of all reagents, about 1,510 (2.6%) are marked active. 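Calls use total luciferase alone and ignore viability, so some active siRNAs may act by altering cell number.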 Entries without a mark were called inactive.

Aim: 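Knock-downs that increase output of a recombinant reporter protein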 (primary screen)
System: human HEK293 embryonic kidney cells stably expressing firefly luciferase (HEK-CMV-Luc2-Hygro)
Reagents: single siRNA against human genes, 0.8 pmol siRNA per well
Duration: 72 h
Measured: 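Reporter luminescence and viable-cell signal on separate replicate plates, given as percent of non-targeting control and median/MAD z-scores, plus per-cell luciferase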
Direction: total luciferase, z-score and total luciferase, % of control: higher = more reporter protein produced; luciferase per cell, z-score: higher = more reporter output per viable cell; viable cells, % of control: higher = more viable cells
Call rule: 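An siRNA counts as active if its total luciferase robust z-score exceeds 3; genes with two or more such siRNAs out of three were retested with fresh siRNAs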
Calls: active = raised luciferase; inactive = no rise

target,PubChem SID,"total luciferase, z-score","total luciferase, % of control","luciferase per cell, z-score","viable cells, % of control"
TLX1NB,SID160774558,-1.06,60.9,0.251,63.7
TLX1NB,SID160774559,-1.41,53.8,-1.31,84.8
TLX1NB,SID160774560,-0.689,68.2,2.87,35.7
FGF7P7,SID160726690,-0.28,76.3,1.44,58.4
FGF7P7,SID160726691,0.587,93.6,0.372,94.8
FGF7P7,SID160728031,-0.783,66.3,-0.931,94.7
WT1,SID160718877,-0.829,65.4,-0.768,89.5
WT1,SID160718878,0.461,91.1,0.156,97.7
WT1,SID160718879,0.363,89.1,-0.204,105
LOC643496 (retired record),SID160733821,0.0999,83.9,-0.516,107
LOC643496 (retired record),SID160768911,0.377,89.4,0.331,91.5
LOC643496 (retired record),SID160768912,-0.308,75.8,-0.822,105
ADD3,SID160714334,-2.33,35.6,-1.77,63.3
ADD3,SID160714345,-0.952,63,-1.43,102
ADD3,SID160714355,-0.598,70,-0.793,96.4
C1GALT1C1,SID160738997,-0.18,78.3,-0.299,94.7
C1GALT1C1,SID160738998,-0.0573,80.7,-0.513,103
C1GALT1C1,SID160738999,0.0166,82.2,0.597,78.5
DPP9,SID160753874,0.923,100,0.339,102
DPP9,SID160753875,-0.812,65.7,0.0336,72.8
DPP9,SID160753876,-0.474,72.4,-0.0683,82.4
UBXN6,SID160750462,-1.76,46.9,-1.97,88
UBXN6,SID160750463,-0.69,68.2,-0.923,97.1
UBXN6,SID160750464,1.73,116,0.438,116
